Data reported in PMC3819306 (PLoS ONE, 2013).
Some peptides are written in HELM: one residue between dots, names in brackets for other building blocks, links after the first $.

Assay: general procedure: Fmoc solid-phase peptide synthesis; Rink amide resin; HBTU, HOBt, DIEA
Details: whole synthesis; for crude HPLC purity / final HPLC purity: analytical RP-HPLC

## PEPTIDE1{[TMBnPro].L.H.S.[pT].[am]}$$$$V2.0
Scale 0.048 mmol
  crude HPLC purity: 79%
  final HPLC purity: 98%
  isolated mass: 9.7 mg
  isolated yield: 25%

## PEPTIDE1{[ChxMePro].L.H.S.[pT].M.[am]}$$$$V2.0
Scale 0.061 mmol
  crude HPLC purity: 64%
  final HPLC purity: >98%
  isolated mass: 10.6 mg
  isolated yield: 20%

## PEPTIDE1{P.L.H.S.[pT].M.[am]}$$$$V2.0
Scale 0.048 mmol
  crude HPLC purity: 63%
  final HPLC purity: 98%
  isolated mass: 7.2 mg
  isolated yield: 20%

## PEPTIDE1{[BnPro].L.H.S.[pT].M.[am]}$$$$V2.0
Scale 0.062 mmol
  crude HPLC purity: 79%
  final HPLC purity: 98%
  isolated mass: 15.4 mg
  isolated yield: 25%

## PEPTIDE1{[ClPipPro].L.H.S.[pT].M.[am]}$$$$V2.0
Scale 0.061 mmol
  crude HPLC purity: 74%
  final HPLC purity: 98%
  isolated mass: 13.2 mg
  isolated yield: 23%

## PEPTIDE1{[ChxAc].P.L.H.S.[pT].M.[am]}$$$$V2.0
Scale 0.041 mmol
  crude HPLC purity: 75%
  final HPLC purity: 98%
  isolated mass: 8.6 mg
  isolated yield: 24%

## PEPTIDE1{[TMBnPro].L.H.S.[pT].M.[am]}$$$$V2.0
Scale 0.061 mmol
  crude HPLC purity: 74%
  final HPLC purity: >98%
  isolated mass: 13.4 mg
  isolated yield: 23%
